# Where “and” joins values, the source holds several entries; their conditions need not be identical. Equal values may be shown once. ± gives the standard deviation of the averaged measurements. Whole data set: some 3,800 compounds, median “cell shape (eccentricity) Z-score vs DMSO control” near 1.1, cut for the lowest 2% near -4.7. The list shows a part of the results.
# System: human monocyte-derived macrophages (M0)
# Assay: cell shape (eccentricity) Z-score vs DMSO control; higher = more elongated, M2-like morphology
# Details: 20 µM; 24 h; macrophage state: M0 (M-CSF)
row,Compound,cell shape (Z-score)
1,C[C@@H]1CN(CC(=O)Nc2ccc3c(c2)Cc2cccc(-c4cc(=O)cc(N5CCOCC5)o4)c2S3)C[C@H](C)O1,4.22
2,CCn1c(=O)c2c(nc(/C=C/c3ccc(OC)c(OC)c3)n2C)n(CC)c1=O,5.11
3,C/C=C(\C)C(=O)O[C@@H]1[C@@H](OC(C)=O)C2[C@@]3(C)CC[C@H](OC4CC(OC)C(OC5CC(OC)C(OC6CC(OC)C(OC7OC(C)C(OC8OC(CO)C(O)C(O)C8O)C(OC)C7O)C(C)O6)C(C)O5)C(C)O4)CC3=CC[C@@]2(O)[C@@]2(O)CC[C@H](C(C)=O)[C@@]12C (stereo not given in full),-2.05 ± 0.52
4,COc1c(O[C@@H]2O[C@H](CO[C@H]3OC[C@](O)(CO)[C@H]3O)[C@@H](O)[C@H](O)[C@H]2O)cc2occ(-c3ccc(O)cc3)c(=O)c2c1O,0.461
5,CC(=O)OC1C(C)OC(OC2C(CO)OC(OC(=O)[C@]34CCC(C)(C)CC3C3=CCC5[C@@]6(C)CC[C@H](OC7OC(CO)C(OC8OC(CO)C(OC9OCC(O)C(O)C9O)C(O)C8O)C(O)C7O)[C@@](C)(CO)C6CC[C@@]5(C)[C@]3(C)CC4)C(OC3OC(C)C(O)C(O)C3O)C2O)C(O)C1O (stereo not given in full),1.12
6,C=C1c2c(Cl)ccc(O)c2C(=O)C2C(=O)[C@]3(O)C(=O)C(C(N)=O)C(=O)[C@@H](N(C)C)[C@@H]3[C@@H](O)[C@H]12 (stereo not given in full),-1.63
7,N#CN/C(=N/CCCCCCOc1ccc(Cl)cc1)Nc1ccncc1,-4.36
8,O=C(Nc1ccccc1)C(O)C(O)C(=O)Nc1ccccc1 (stereo not given),1.2
9,COc1c(O)cc2c(c1O)C(=O)CC(c1ccccc1)O2 (stereo not given),0.404
10,CC1(O)CC(=O)c2c(ccc3c2C(=O)c2cccc(O)c2C3=O)C1 (stereo not given),-4.37
11,Cc1ccc([N+](=O)[O-])cc1S(=O)(=O)N(C)C,-0.141
12,CC(C)CC(NC(=O)N1CCCCCC1)C(=O)NC(Cc1cn(C)c2ccccc12)C(=O)NC(Cc1ccccn1)C(=O)O (stereo not given),0.497
13,COc1ccc(C2OCC3(O)C(c4ccc(OC)c(OC)c4)OCC23)cc1OC (stereo not given),1.67
14,COC(=O)C1=COC(OC2OC(CO)C(O)C(O)C2O)C2C1C(O)CC2(C)OC(C)=O (stereo not given),2.6
15,CC(=O)Nc1ncc([N+](=O)[O-])s1,0.475
16,CCCCCCCCC=CCCCCCCCC(=O)NCCO,0.309
17,CN1c2cc3c(cc2N=C(c2ccc(C(=O)O)cc2)c2ccccc21)C(C)(C)CCC3(C)C,-2.76
18,C[C@H](CCC(=O)O)[C@H]1CCC2C3C(=O)CC4CC(=O)CC[C@]4(C)C3CC(=O)[C@@]21C (stereo not given in full),1.81
19,CC1CCC2(NC1)OC1CC3C4CC=C5CC(O[C@@H]6O[C@H](CO)[C@@H](O[C@@H]7O[C@@H](C)[C@H](O)[C@@H](O)[C@H]7O)[C@H](O)[C@H]6O)CCC5(C)C4CCC3(C)C1C2C (stereo not given in full),0.328
20,CCc1cc2c(c(CC)n1)CCC(=O)N2Cc1ccc(-c2ccccc2-c2nnn[nH]2)cc1,2.77
21,CCCCC(=O)O[C@H]1CCC2C3CCc4cc(O)ccc4C3CC[C@@]21C (stereo not given in full),1.71
22,CNCCCC12CCC(c3ccccc31)c1ccccc12,0.766
23,COc1ccc2c(c1)CCC1C2CC[C@@]2(C)C1CC[C@@H]2O (stereo not given in full),3.09
24,COC(=O)c1c(C)cc2c(c(C)c1=O)OC1(C2)C(C)CCC2C(C)(C)OC(=O)C=CC21C (stereo not given),1.64
25,c1ccc(COCCCc2cnc[nH]2)cc1,2.2

# Quoted at random: 2 entries already listed
row,Compound,cell shape (Z-score)
16,CCCCCCCCC=CCCCCCCCC(=O)NCCO,0.309
6,C=C1c2c(Cl)ccc(O)c2C(=O)C2C(=O)[C@]3(O)C(=O)C(C(N)=O)C(=O)[C@@H](N(C)C)[C@@H]3[C@@H](O)[C@H]12 (stereo not given in full),-1.63

# Next part

row,Compound,cell shape (Z-score)
1,COC(=O)c1cccc(OC(C)C(=O)O)c1 (stereo not given),0.817 ± 1.2
2,O=C(O)CC[C@H]1CC[C@@](c2cc(F)ccc2F)(S(=O)(=O)c2ccc(Cl)cc2)CC1,-4.59
3,O=C(O)c1ccc(NC2OCC(O)C(O)C2O)cc1 (stereo not given),0.577
4,C=C1CCC2[C@](C)(CCC[C@]2(C)C(=O)O)[C@H]1CC/C(C)=C/C(=O)OC (stereo not given in full),-0.908
5,C[C@H]1CC(=O)C2=C(C1)C(O)C(O)[C@@]1(O)[C@H]2C(=O)c2cccc(O)c2[C@@H]1O (stereo not given in full),0.941
6,COc1cc(/C=C/CO)ccc1O[C@@H]1O[C@H](CO)[C@@H](O)[C@H](O)[C@H]1O,1.08
7,FC(F)(F)c1cc(CO[C@H]2CCCN[C@H]2c2ccccc2)cc(C(F)(F)F)c1,1.06
8,Nc1nc(=O)[nH]cc1F,-0.631
9,C=C1CCC[C@]2(C)CC[C@@](O)(C(=C)C(=O)O)C[C@@H]12,-0.504
10,COc1ccc(/C=C/C(=O)O[C@]2(C)CCC3C(C(=O)O)=CO[C@@H](O[C@@H]4O[C@H](CO)[C@@H](O)[C@H](O)[C@H]4O)[C@@H]32)cc1 (stereo not given in full),1.31
11,CC(C(=O)O)c1ccc(N2Cc3ccccc3C2=O)cc1 (stereo not given),1.06
12,C[C@H]1CN([C@@H](C)CO)C(=O)c2cc(C#CC3(O)CCCC3)cnc2O[C@@H]1CN(C)C(=O)C1CCOCC1,0.441
13,COc1cc2ncnc(Nc3ccc(O)c(Br)c3)c2cc1OC,15.2
14,C=C1CC[C@@]2(OC1)O[C@H]1CC3[C@@H]4CC=C5C[C@H](O[C@@H]6OC[C@H](O)[C@H](O)[C@H]6O[C@@H]6O[C@@H](C)[C@H](O)[C@@H](O)[C@H]6O)C[C@@H](O)[C@]5(C)C4CC[C@]3(C)[C@H]1[C@@H]2C (stereo not given in full),-1.19
15,O=C(Cn1ccnc1[N+](=O)[O-])NCc1ccccc1,0.698
16,C[C@H]1CN([C@@H](C)CO)S(=O)(=O)c2ccc(C#Cc3ccccc3F)cc2O[C@H]1CN(C)C(=O)Cc1ccncc1,2.68
17,CC(=O)Nc1nc(C)c(S(=O)(=O)Nc2ccc(C(O)(C(F)(F)F)C(F)(F)F)cc2)s1,0.463
18,CC(=O)OC1C(=O)C2(C)C(O)CC3OCC3(OC(C)=O)C2C(OC(=O)c2ccccc2)C2(O)CC(OC(=O)C(O)C(NC(=O)c3ccccc3)c3ccccc3)C(C)=C1C2(C)C (stereo not given),-3.69
19,CCCCCS(=O)(=O)CCCCCCCCCCn1c(-c2ccc(O)cc2)c(C)c2cc(O)ccc21,-0.945
20,CNC[C@@H]1Oc2ccc(NC(=O)CCN3CCOCC3)cc2CC(=O)N([C@H](C)CO)C[C@@H]1C,4.24
21,O=C1CC2(CCCC2)CC(=O)N1CCCCNCC1COc2ccccc2O1 (stereo not given),1.11
22,CN1CC(=O)N=C1NC(=O)Nc1cccc(Cl)c1,2.53
23,C[C@@H]1CN([C@H](C)CO)C(=O)Cc2cc(NC(=O)Nc3ccc(F)cc3)ccc2O[C@@H]1CN(C)Cc1ccc(C(=O)O)cc1,2.38
24,CCCC(=O)Nc1ccc(OCC(O)CNC(C)C)c(C(C)=O)c1 (stereo not given),1.65
25,CC(=O)O[C@H]1C[C@@H](OC(C)=O)C(C)(C)C2C[C@@H](O)[C@]3(C)C(CC[C@@]4(C)[C@H](c5ccoc5)OC(=O)C5OC543)[C@]21C (stereo not given in full),-2.16

# Laid out differently: results already given.
row | Compound | cell shape (Z-score)
10 | COc1ccc(/C=C/C(=O)O[C@]2(C)CCC3C(C(=O)O)=CO[C@@H](O[C@@H]4O[C@H](CO)[C@@H](O)[C@H](O)[C@H]4O)[C@@H]32)cc1 (stereo not given in full) | 1.31
21 | O=C1CC2(CCCC2)CC(=O)N1CCCCNCC1COc2ccccc2O1 (stereo not given) | 1.11
23 | C[C@@H]1CN([C@H](C)CO)C(=O)Cc2cc(NC(=O)Nc3ccc(F)cc3)ccc2O[C@@H]1CN(C)Cc1ccc(C(=O)O)cc1 | 2.38

# Remaining list, next part

row,Compound,cell shape (Z-score)
1,CN1CCN(CCCN2c3ccccc3Sc3ccc(C(F)(F)F)cc32)CC1,-2.15 and -2.77
2,CC1CC[C@@]2(OC1)O[C@H]1CC3C4CC=C5C[C@@H](O[C@@H]6O[C@H](CO)[C@@H](O)[C@H](O)[C@H]6O)CC[C@]5(C)C4CC[C@]3(C)[C@@]1(O)[C@@H]2C (stereo not given in full),-1.33
3,CC(C)=CCC[C@](C)(O[C@@H]1O[C@H](CO[C@@H]2O[C@@H](CO)[C@H](O)[C@H]2O)[C@@H](O)[C@H](O)[C@H]1O)[C@H]1CC[C@]2(C)C1[C@H](O)CC1[C@@]3(C)CC[C@H](O[C@@H]4O[C@H](CO)[C@@H](O)[C@H](O)[C@H]4O[C@@H]4O[C@H](CO)[C@@H](O)[C@H](O)[C@H]4O)C(C)(C)C3CC[C@]12C (stereo not given in full),0.625
4,CC(C)(C)OC(=O)CN(Cc1ccc(Cl)cc1)Cc1ccc([N+](=O)[O-])s1,1.99
5,Cc1c(O)cc(O)c2c1OC(c1ccccc1)CC2=O (stereo not given),1.66
6,Cc1cccc(C)c1NC(=O)C[N+](C)(C)C,-4.98
7,O=C(OCCN1CCCCC1)c1c[nH]c2ccccc12,1.25
8,C=C(C(=O)O)[C@@H]1CC[C@@]2(C)CC[C@H](O)[C@@]2(C(C)=O)C1,-4.55
9,OC[C@@]1(O)CO[C@H](OC[C@H]2O[C@@H](OC(CCCCc3ccc(O)cc3)CCc3ccc(O)cc3)[C@H](O[C@H]3OC[C@](O)(CO)[C@H]3O)[C@@H](O)[C@@H]2O)[C@@H]1O (stereo not given in full),1.27
10,CC1=CC(/C=C(\C)CCC(O)C(O)/C=C/C(=O)O)C2(O)C(=O)NC(CC(C)C)C2C1C (stereo not given),2.58
11,C=C1C(=O)O[C@@H]2[C@H]1[C@H](O)C[C@]1(C)[C@@H](O)CC=C(C)[C@@H]21,-0.912
12,O=C(O)[C@H]1O[C@@H](Oc2c(-c3ccccc3)cc(O)c(-c3ccccc3)c2O)[C@H](O)[C@@H](O)[C@@H]1O,-0.539
13,CC(=O)O[C@H]1[C@H](Oc2ccccc2COC(=O)C2(O)C=CCCC2=O)O[C@H](CO)[C@@H](O)[C@@H]1O (stereo not given in full),1.32
14,CC(C)(C)NC(=O)[C@H]1CCC2C3CC[C@H]4NC(=O)C=C[C@]4(C)C3CC[C@@]21C (stereo not given in full),0.645
15,COc1cc(C2OCC3C(c4ccc5c(c4)OCO5)OC(=O)C23)ccc1O (stereo not given),2.77
16,CCCCCCCCCCCCCCCCOP(=O)(O)OCC[N+](C)(C)C,0.672
17,COc1cc(OC)c(-c2c(OC)cc(OC)cc2OC)c(OC)c1,4.37
18,COc1cc(O)c(CCO)c2c1C(=O)C[C@@H](C)O2,2.13
19,CCC(=O)OCC(=O)[C@@]1(OC(=O)CC)[C@H](C)CC2C3C([C@@H](O)C[C@@]21C)[C@@]1(C)C=CC(=O)C=C1C[C@H]3Cl (stereo not given in full),-0.0138
20,COc1ccc(C[C@H](N)C(=O)N[C@@H]2[C@@H](CO)OC(n3cnc4c(N(C)C)ncnc43)[C@@H]2O)cc1 (stereo not given in full),-3.92
21,CCC(C)C(O)C(C)(O)/C=C/C1=CC2=C(Cl)C(=O)C(C)(O)C(O)C2=CO1 (stereo not given),-0.397
22,CCOC(=O)C(CCc1ccccc1)NC1CCc2ccccc2N(CC(=O)O)C1=O (stereo not given),-1.07
23,COc1ccc(-c2oc3cc(OC)c(OC)c(O)c3c(=O)c2OC)cc1OC,1.24
24,Cc1ccccc1N1C(=O)c2cc(S(N)(=O)=O)c(Cl)cc2NC1C (stereo not given),-0.955
25,COc1cc([C@@H]2c3cc4c(cc3C(OC3OC5COC(C)OC5C(O)C3O)C3OCC(=O)[C@@H]32)OCO4)cc(OC)c1O (stereo not given in full),2.58
